Measurements taken from PubChem BioAssay AID2685 (National Center for Advancing Translational Sciences (NCATS), 2010).
Some of the results follow. The main result of the screen is listed elsewhere. These columns were measured beside it and carry no call. Most of these compounds were active or inconclusive in the main read-out, so they are no random draw. Potencies come from curve fits of mixed quality, noted in brackets.

Assay: qHTS Assay for Lipid Storage Modulators in Drosophila S3 Cells;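 for cell number change: cells counted by Cell Tracker Red CMTPX staining in the red channel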
Conditions: BODIPY lipid droplet fluorescence, 18-24 h; for cell number change: measured here: cell count max response, cells fed with added oleic acid
How it was run: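 Drosophila S3 cells got compounds at several concentrations plus oleic acid (400 uM solution). Laser-scanning cytometry with 488 nm excitation read lipid droplets at 500-530 nm and cells at 575-640 nm. Percent activity was relative to 20 uM Triacsin C.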

[1] = measured here: cell number channel AC50, cells fed with added oleic acid
[2] = measured here: lipid fluorescence (Fed channel) AC50, cells fed with added oleic acid

SMILES: NCCCP(=O)(O)CCc1ccccc1
- cell number change: -51.1%
- AC50 [1]: 29.1 µM [falling, single point]
- AC50 [2]: 18.4 µM [falling, single point]

SMILES: COC(=O)C1=C(c2ccc(C(C)=O)cc2)C[C@@H]2CC[C@H]1N2C(=O)N1CCC(C)CC1
- cell number change: -4.24%
- AC50 [2]: 0.58 µM [falling, single point]

SMILES: COc1cc(OC)c(OC)cc1CNC(C)C(O)c1ccccc1 (stereo not given)
- cell number change: -8.88%
- AC50 [2]: 20.6 µM [rising, single point]

SMILES: CC1(C)CN2C(c3ccc(Cl)cc3)N2C1 (stereo not given)
- cell number change: -7.12%

SMILES: O=c1c2ccccc2nc(/C=C/c2ccc3c(c2)OCO3)n1-c1cccc(O)c1
- cell number change: 17.5%
- AC50 [2]: 0.206 µM [rising, full curve]

SMILES: COC(=O)c1c(N)n(Cc2ccc(OC)cc2)c2nc3ccccc3nc12
- cell number change: -40.3%
- AC50 [1]: 29.1 µM [falling, single point]

SMILES: O=C1NC(=S)NC(=O)C12C(c1ccc(F)cc1)NC(=S)NC2c1ccc(F)cc1 (stereo not given)
- cell number change: -55.5%
- AC50 [1]: 1.64 µM [falling, full curve]
- AC50 [2]: 29.1 µM [falling, single point]

SMILES: COC(=O)C1=C(c2ccc(F)cc2OCc2ccccc2)C[C@@H]2CC[C@H]1N2C(=O)NCCNC(C)=O
- cell number change: -13%

SMILES: CN(C)P(=NC(=S)c1cccn1C)(N(C)C)N(C)C
- cell number change: 11.6%
- AC50 [1]: 4.61 µM [falling, single point]
- AC50 [2]: 6.51 µM [falling, partial curve]

SMILES: COC(=O)C1=C(c2ccccc2OCc2ccccc2)C[C@@H]2CC[C@H]1N2C(=O)NCc1ccc(N(C)C)cc1
- AC50 [2]: 25.9 µM [falling, partial curve, poor fit]

SMILES: CN1CCN(c2c(N)c(=O)oc3ccccc23)CC1
- cell number change: -96.4%
- AC50 [1]: 23.1 µM [falling, partial curve]

SMILES: CCOc1cc(-c2ccc(N)c(OCC)c2)ccc1N
- AC50 [2]: 0.58 µM [rising, single point]

SMILES: CC(=NCc1ccc2c(c1)OCO2)c1c(O)n(C)c(=O)n(C)c1=O
- AC50 [2]: 4.11 µM [rising, partial curve]

SMILES: COc1ccccc1OCCCn1cc(C(=O)c2ccco2)c2ccccc21
- AC50 [1]: 3.26 µM [rising, partial curve]

SMILES: CN1CCN(c2ccc(N)cc2)CC1
- cell number change: -18.8%
- AC50 [2]: 18.4 µM [falling, partial curve]

SMILES: Cc1ccc(N)c(C)c1
- cell number change: 19.4%
- AC50 [2]: 2.59 µM [falling, single point]

SMILES: CN(c1ccccc1)c1ccc([N+](=O)[O-])c2nonc12
- cell number change: -46.7%
- AC50 [1]: 16.4 µM [falling, single point]
- AC50 [2]: 16.4 µM [falling, single point]

SMILES: CCC1C=CC=CC[C@H](C)[C@@H](O)[C@](C)(O)C(=O)[C@@H](C)[C@H](O)[C@@H](C)C(=O)[C@H](C)[C@@H](O)[C@H](C)C=CC(=O)OC2[C@@H](C)C(CC1)OC1(CC[C@@H](C)C(C[C@H](C)O)O1)[C@@H]2C (stereo not given in full)
- cell number change: -36.7%
- AC50 [2]: 0.0146 µM [falling, full curve, poor fit]

SMILES: OCC1(CO)COC(c2cccnc2)N1 (stereo not given)
- cell number change: -1.89%
- AC50 [2]: 3.66 µM [falling, partial curve]

SMILES: CCN(CC)CCCN=C(C)c1c(O)n(C2CCCCC2)c(=O)[nH]c1=O
- cell number change: 13.4%

SMILES: CCC1C2CC3C4N(C)c5ccccc5C45CC(C2C5O)N3[C@@H]1O (stereo not given in full)
- AC50 [2]: 0.58 µM [rising, single point]

SMILES: Cc1[nH]c2c(C(F)(F)F)cccc2c1CCN
- cell number change: -6.2%
- AC50 [2]: 29.1 µM [rising, single point]

SMILES: C=CCNC(=O)c1c(N)n(Cc2ccco2)c2nc3ccccc3nc12
- cell number change: -44.2%
- AC50 [1]: 29.1 µM [falling, single point]
- AC50 [2]: 0.206 µM [rising, full curve]

SMILES: Cc1cccc(CN2CCN(C(=O)Cc3ccccc3)CC2)c1
- cell number change: 26.4%
- AC50 [2]: 29.1 µM [rising, single point]

SMILES: CCN1C(=O)/C(=C/c2ccc3c(c2)CCN3CCCCl)C(=O)NC1=S
- cell number change: -6.91%

SMILES: CCOc1cc2c(cc1OCC)-n1cccc1C(c1ccc(C(C)C)cc1)NC2 (stereo not given)
- cell number change: -69.5%
- AC50 [1]: 7.31 µM [falling, partial curve]
- AC50 [2]: 9.2 µM [falling, partial curve]

SMILES: Clc1ccccc1CN1CCN(c2cccc3[nH]ccc23)CC1
- cell number change: -23.6%
- AC50 [2]: 29.1 µM [falling, single point]

SMILES: Cc1ccc(-c2cc(-c3ccccc3)cc(-c3ccccc3)[n+]2-c2ccccc2C(=O)O)cc1
- cell number change: -45.9%
- AC50 [1]: 16.4 µM [falling, partial curve, poor fit]
- AC50 [2]: 1.64 µM [falling, partial curve]

SMILES: CCOP(=O)(OCC)C(NC(=O)CC(C)C)C(Cl)(Cl)Cl (stereo not given)
- cell number change: 114%
- AC50 [1]: 2.31 µM [falling, partial curve]
- AC50 [2]: 6.51 µM [falling, single point]

SMILES: COC(=O)C1=C(c2cccc(C#N)c2)C[C@@H]2CC[C@H]1N2C(=O)N1CCCCC1
- cell number change: -10.5%
- AC50 [2]: 0.651 µM [rising, full curve, poor fit]

SMILES: Cc1ccc(CN2CCCC(C(=O)c3ccc4c(c3)OCO4)C2)cc1C (stereo not given)
- cell number change: -22.4%
- AC50 [2]: 29.1 µM [falling, single point]

SMILES: COc1cc(OC)cc(-n2nc(C(=O)N3CCC4(CC3)OCCO4)c3ccccc3c2=O)c1
- cell number change: 7.44%
- AC50 [2]: 29.1 µM [rising, single point]

SMILES: Cc1cc(=O)oc2c(C)c(OCC(=O)N3CCN(Cc4ccc5c(c4)OCO5)CC3)ccc12
- cell number change: 25.7%
- AC50 [2]: 6.51 µM [rising, single point]

SMILES: COC(=O)c1ccc(CN2CCN(Cc3ccccc3)CC2)cc1
- cell number change: 10.1%
- AC50 [2]: 16.4 µM [rising, single point]

SMILES: O=c1[nH]c(=O)n(-c2ccccc2)c(O)c1C=NC12CN3CN(CN(C3)C1)C2
- cell number change: -26.4%
- AC50 [1]: 0.00517 µM [falling, full curve, poor fit]
- AC50 [2]: 0.116 µM [falling, full curve, poor fit]

SMILES: CCOC(=O)c1cccc(-[n+]2c(-c3ccccc3)cc(-c3ccccc3)cc2-c2ccccc2)c1
- AC50 [2]: 10.3 µM [falling, partial curve]

SMILES: CP(=O)(Nc1ccccc1)C(Cl)(Cl)Cl (stereo not given)
- cell number change: -29.2%

SMILES: Cc1ccc(S(=O)(=O)N(C)C)cc1NC(=O)C(C)[N+]12CCN(CC1)CC2 (stereo not given)
- cell number change: 66.7%

SMILES: Cc1ccccc1C1=NCC(=S)Nc2ccc(Cl)cc21
- cell number change: 17.1%

SMILES: C=CCn1c(O)c(C(C)=Nc2ccc(N(CC)CC)cc2)c(=O)[nH]c1=O
- AC50 [2]: 29.1 µM [rising, single point]

SMILES: COC(=O)[C@H]1[C@H]2C[C@@H]3c4[nH]c5cc(OC)ccc5c4CCN3C[C@H]2C[C@@H](OC(=O)/C=C/c2cc(OC)c(OC)c(OC)c2)[C@@H]1OC
- AC50 [1]: 3.26 µM [rising, single point]

SMILES: COc1ccc(-n2nc(C(=O)NCC(=O)N3CCC4(CC3)OCCO4)c3ccccc3c2=O)cc1
- cell number change: 11.7%

SMILES: CC(=Nc1ccc2c(c1)CCC2)c1c(O)n(C2CCCCC2)c(=O)[nH]c1=O
- cell number change: -59.9%
- AC50 [1]: 2.31 µM [falling, full curve]

SMILES: O=C1NC(=O)N(Cc2ccccc2)C(=O)/C1=C\c1ccco1
- cell number change: -14.5%
- AC50 [2]: 1.03 µM [falling, full curve]

SMILES: Cc1c(CCN)ccc2c1[nH]c1ccccc12
- cell number change: 5.67%
- AC50 [2]: 23.1 µM [falling, single point]

SMILES: CCOC(=O)C1=C(C)OC(N)=C(C#N)C12C(=O)Nc1ccc(C)cc12 (stereo not given)
- cell number change: -34.8%
- AC50 [1]: 29.1 µM [falling, single point]

SMILES: O=c1c2ccccc2nc(-c2ccccc2)n1-c1nccs1
- cell number change: -0.855%
- AC50 [2]: 2.91 µM [rising, single point]

SMILES: CCN1CCN(C(=O)Cc2ccc(C)cc2)CC1
- cell number change: -36%
- AC50 [1]: 0.259 µM [falling, partial curve, poor fit]

SMILES: CCCCC(=O)N/N=C/c1c(O)n(CCC2=CCCCC2)c(=O)[nH]c1=O
- cell number change: 18.4%
- AC50 [2]: 3.26 µM [rising, partial curve]

SMILES: OCC12CO[C@@H]3c4ccccc4[C@H](OC1)N32 (stereo not given in full)
- cell number change: -0.0586%
- AC50 [2]: 0.411 µM [falling, full curve]

SMILES: Cc1ccc2c(c1)CC1(CN2C)C(=O)NC(=O)N(C(C)C)C1=O (stereo not given)
- cell number change: 30.6%
- AC50 [1]: 16.4 µM [rising, partial curve, poor fit]

SMILES: COC(=O)c1c(C)n(Cc2ccc3c(c2)OCO3)c2ccc(O)cc12
- AC50 [1]: 2.06 µM [rising, partial curve]
- AC50 [2]: 2.59 µM [rising, partial curve]

SMILES: CN1CCC(N(C)Cc2cccnc2)CC1
- cell number change: -23.9%
- AC50 [1]: 0.58 µM [falling, full curve, poor fit]
- AC50 [2]: 18.4 µM [falling, partial curve]

SMILES: CCc1n[nH]c(CCN)n1
- cell number change: -25.8%
- AC50 [2]: 2.06 µM [falling, full curve]

SMILES: C[C@H]1CC[C@@H]2N(C1)C[C@H]1[C@@H]3C[C@H]4[C@@H](CC(=O)[C@H]5C[C@@H](O)CC[C@@]54C)[C@@H]3CC[C@H]1[C@]2(C)O
- cell number change: 39.7%
- AC50 [1]: 20.6 µM [rising, single point]
- AC50 [2]: 29.1 µM [rising, single point]

SMILES: COC(=O)C1=C(c2ccc(F)cc2OCc2ccccc2)C[C@@H]2CC[C@H]1N2C(=O)NC1CC1
- cell number change: -10.7%
- AC50 [2]: 0.82 µM [rising, single point]

SMILES: CNCC(O)c1ccc(O)cc1 (stereo not given)
- cell number change: -5%
- AC50 [2]: 20.6 µM [rising, single point]

SMILES: Cc1ccc(N2C(=O)NC(=O)/C(=C\c3cccn3C(C)(C)C)C2=O)cc1
- cell number change: -2.89%
